The other results are listed elsewhere or left out.

The chains behind the UniProt entries cited, without tags or fusion partners. Where a name states a change or a piece, a line headed by the entry shows the natural chain unless it says otherwise.
UniProt Q9P013: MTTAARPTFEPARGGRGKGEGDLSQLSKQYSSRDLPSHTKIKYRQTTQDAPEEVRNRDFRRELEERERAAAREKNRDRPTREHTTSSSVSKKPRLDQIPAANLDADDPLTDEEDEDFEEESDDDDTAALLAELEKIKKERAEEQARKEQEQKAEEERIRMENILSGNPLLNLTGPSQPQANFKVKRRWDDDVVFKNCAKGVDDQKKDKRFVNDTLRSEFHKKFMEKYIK
UniProt P0DMU8: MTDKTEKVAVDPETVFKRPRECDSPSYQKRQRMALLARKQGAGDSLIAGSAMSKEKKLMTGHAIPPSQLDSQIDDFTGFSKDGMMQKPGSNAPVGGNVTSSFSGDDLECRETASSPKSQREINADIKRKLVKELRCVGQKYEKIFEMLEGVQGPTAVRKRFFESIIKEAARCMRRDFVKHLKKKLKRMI
UniProt P0DMU9: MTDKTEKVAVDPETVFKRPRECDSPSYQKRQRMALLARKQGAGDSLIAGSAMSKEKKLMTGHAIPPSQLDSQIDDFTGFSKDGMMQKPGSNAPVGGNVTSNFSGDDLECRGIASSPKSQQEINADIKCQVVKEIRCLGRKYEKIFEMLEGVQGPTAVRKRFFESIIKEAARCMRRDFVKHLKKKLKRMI
UniProt Q9NPI6: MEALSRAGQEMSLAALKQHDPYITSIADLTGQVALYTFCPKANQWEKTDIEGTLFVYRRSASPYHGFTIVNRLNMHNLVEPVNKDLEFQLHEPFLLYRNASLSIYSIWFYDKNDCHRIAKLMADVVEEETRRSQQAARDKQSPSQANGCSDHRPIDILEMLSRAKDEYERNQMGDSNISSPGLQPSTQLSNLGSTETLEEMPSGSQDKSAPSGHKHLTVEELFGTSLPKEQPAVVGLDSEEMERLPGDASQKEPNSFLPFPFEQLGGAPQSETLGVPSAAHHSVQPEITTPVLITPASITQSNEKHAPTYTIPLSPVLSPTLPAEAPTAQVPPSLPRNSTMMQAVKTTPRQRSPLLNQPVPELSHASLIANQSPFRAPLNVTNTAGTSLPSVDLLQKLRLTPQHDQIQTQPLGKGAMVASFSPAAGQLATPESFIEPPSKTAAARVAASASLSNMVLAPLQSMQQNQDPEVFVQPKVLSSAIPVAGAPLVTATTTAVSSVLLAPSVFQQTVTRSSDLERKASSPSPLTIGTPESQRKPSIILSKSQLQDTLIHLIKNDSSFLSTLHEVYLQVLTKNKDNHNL
UniProt P50461: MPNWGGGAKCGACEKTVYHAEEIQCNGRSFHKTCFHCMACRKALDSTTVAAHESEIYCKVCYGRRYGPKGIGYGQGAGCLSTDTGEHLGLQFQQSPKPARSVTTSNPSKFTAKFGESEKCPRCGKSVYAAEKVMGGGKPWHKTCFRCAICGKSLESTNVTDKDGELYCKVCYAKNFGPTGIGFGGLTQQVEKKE
UniProt Q8TB03: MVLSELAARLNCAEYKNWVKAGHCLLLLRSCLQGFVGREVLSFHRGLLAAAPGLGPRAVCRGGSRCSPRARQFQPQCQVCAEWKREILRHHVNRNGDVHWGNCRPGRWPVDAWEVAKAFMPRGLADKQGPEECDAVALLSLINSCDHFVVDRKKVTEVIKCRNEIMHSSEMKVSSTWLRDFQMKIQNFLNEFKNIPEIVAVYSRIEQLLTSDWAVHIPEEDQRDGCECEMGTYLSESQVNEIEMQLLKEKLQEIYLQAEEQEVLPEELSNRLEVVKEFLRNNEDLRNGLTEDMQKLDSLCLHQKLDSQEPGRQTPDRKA
UniProt Q8WUE5: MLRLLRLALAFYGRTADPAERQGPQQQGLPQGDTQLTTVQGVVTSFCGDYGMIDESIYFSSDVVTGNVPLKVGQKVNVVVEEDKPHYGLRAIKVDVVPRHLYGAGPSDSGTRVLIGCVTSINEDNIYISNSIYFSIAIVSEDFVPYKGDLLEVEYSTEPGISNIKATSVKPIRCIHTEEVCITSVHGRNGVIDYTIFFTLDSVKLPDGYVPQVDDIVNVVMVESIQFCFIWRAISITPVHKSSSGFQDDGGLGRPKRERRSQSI
UniProt P32929, whole entry, looked up: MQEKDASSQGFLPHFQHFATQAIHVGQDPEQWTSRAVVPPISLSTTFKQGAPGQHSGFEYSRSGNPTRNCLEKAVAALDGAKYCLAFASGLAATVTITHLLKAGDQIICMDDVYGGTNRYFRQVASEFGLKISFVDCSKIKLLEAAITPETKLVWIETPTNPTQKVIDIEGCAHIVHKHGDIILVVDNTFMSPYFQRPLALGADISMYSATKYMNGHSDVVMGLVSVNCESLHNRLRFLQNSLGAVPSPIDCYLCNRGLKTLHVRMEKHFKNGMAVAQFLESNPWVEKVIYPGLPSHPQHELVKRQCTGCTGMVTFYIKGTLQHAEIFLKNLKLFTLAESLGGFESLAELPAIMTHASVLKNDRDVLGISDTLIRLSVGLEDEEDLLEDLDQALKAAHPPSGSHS
UniProt P21291: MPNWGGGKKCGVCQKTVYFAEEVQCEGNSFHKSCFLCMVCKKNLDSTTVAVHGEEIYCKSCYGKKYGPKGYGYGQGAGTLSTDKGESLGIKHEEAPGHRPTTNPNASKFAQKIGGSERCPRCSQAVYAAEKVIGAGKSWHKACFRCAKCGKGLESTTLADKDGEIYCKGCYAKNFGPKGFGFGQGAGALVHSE
UniProt Q13617, whole entry, looked up: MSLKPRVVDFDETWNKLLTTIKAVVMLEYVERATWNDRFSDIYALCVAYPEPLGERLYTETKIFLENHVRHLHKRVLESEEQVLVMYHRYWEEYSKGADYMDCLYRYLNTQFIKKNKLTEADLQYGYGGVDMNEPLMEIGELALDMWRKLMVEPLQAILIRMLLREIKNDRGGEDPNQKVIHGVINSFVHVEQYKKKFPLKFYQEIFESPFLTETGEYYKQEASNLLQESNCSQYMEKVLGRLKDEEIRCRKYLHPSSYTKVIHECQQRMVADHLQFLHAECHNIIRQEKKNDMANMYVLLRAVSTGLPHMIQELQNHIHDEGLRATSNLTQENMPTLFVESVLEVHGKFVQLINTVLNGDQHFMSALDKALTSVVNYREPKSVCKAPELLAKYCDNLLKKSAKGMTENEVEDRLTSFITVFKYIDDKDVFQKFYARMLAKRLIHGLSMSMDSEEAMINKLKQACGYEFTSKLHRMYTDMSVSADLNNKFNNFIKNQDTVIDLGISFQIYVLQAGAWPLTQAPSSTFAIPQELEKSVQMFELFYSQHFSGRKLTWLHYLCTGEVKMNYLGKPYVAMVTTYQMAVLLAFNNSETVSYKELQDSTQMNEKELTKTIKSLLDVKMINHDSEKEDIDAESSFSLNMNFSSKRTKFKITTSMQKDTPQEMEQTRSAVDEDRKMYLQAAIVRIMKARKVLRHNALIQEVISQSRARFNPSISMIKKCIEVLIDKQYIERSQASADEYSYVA
UniProt P08574: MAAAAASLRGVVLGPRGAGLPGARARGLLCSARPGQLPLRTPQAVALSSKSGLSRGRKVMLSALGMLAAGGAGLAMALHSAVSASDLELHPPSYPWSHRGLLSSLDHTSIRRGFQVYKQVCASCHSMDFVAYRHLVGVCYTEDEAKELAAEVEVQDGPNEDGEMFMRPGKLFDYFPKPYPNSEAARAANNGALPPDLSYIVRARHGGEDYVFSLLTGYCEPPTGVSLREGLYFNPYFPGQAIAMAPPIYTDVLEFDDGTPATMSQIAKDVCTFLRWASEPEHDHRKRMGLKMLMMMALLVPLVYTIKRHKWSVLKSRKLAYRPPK
UniProt Q9UJW0, whole entry, looked up: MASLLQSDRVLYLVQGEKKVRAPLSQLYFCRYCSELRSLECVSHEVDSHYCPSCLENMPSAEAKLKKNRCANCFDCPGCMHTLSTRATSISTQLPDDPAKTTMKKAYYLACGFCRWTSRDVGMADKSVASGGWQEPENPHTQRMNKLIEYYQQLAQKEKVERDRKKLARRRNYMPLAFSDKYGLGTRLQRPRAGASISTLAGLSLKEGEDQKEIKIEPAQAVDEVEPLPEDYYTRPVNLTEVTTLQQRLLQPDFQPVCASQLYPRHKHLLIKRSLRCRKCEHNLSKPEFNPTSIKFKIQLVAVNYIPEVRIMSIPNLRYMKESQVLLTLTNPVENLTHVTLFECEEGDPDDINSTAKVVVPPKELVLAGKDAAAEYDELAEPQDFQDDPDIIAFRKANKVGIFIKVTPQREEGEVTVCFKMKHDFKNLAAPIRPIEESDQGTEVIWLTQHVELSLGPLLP
UniProt Q13619, whole entry, looked up: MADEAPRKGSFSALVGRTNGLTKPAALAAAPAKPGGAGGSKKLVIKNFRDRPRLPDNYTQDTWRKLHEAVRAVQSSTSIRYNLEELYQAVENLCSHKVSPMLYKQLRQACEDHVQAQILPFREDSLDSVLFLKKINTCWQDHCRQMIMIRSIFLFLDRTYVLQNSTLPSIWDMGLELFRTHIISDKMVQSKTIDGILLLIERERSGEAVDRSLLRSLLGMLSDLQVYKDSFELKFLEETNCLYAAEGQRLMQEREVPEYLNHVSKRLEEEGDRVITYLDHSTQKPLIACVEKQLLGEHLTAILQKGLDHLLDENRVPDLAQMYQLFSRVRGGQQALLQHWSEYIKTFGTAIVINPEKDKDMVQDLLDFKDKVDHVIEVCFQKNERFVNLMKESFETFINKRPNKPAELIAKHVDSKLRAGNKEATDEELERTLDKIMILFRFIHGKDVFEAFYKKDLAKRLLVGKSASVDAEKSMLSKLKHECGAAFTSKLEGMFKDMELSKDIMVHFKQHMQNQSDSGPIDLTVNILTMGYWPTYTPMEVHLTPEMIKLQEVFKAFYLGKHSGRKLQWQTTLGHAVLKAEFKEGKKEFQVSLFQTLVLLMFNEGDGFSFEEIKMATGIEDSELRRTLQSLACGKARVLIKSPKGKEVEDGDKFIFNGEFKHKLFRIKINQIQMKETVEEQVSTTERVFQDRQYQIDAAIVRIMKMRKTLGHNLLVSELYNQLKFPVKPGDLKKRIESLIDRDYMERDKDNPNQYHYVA
UniProt Q9BTE1, whole entry, looked up: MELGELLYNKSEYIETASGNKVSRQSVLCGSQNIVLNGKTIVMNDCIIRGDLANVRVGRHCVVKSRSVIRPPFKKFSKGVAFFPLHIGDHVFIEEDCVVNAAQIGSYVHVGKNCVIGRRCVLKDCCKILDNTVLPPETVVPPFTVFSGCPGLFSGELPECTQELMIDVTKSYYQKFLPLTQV
UniProt Q9H0L4: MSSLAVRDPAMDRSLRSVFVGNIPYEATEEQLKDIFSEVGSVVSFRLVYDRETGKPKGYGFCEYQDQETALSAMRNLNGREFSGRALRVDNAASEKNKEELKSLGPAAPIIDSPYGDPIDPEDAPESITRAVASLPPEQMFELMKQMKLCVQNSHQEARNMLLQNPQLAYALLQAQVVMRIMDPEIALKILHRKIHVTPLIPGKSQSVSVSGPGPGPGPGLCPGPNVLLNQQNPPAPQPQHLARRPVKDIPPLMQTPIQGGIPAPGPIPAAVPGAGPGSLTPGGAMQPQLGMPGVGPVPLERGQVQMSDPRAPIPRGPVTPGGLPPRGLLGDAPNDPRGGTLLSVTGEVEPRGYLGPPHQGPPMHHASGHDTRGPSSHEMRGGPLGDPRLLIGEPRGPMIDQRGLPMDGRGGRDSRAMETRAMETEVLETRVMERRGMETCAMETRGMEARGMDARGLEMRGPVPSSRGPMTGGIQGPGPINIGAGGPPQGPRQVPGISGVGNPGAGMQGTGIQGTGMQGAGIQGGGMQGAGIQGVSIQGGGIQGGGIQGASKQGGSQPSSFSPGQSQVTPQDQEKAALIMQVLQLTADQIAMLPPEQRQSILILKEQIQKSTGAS
UniProt Q66K64, whole entry, looked up: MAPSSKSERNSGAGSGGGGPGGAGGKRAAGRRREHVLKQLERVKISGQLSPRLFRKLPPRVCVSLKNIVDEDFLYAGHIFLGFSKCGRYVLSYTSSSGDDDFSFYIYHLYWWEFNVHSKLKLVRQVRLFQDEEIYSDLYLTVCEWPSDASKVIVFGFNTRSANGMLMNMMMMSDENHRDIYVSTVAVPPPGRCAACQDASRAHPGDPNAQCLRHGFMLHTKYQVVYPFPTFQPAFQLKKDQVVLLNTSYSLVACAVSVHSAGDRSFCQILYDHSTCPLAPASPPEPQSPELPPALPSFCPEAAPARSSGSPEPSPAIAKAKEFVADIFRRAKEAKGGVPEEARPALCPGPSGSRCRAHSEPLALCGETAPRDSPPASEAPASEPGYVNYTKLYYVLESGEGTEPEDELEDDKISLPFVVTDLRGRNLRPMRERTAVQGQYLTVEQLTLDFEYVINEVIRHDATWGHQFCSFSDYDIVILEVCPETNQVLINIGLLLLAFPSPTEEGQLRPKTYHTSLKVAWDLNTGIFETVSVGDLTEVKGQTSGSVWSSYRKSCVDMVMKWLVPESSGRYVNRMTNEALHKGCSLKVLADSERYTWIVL
UniProt P61803: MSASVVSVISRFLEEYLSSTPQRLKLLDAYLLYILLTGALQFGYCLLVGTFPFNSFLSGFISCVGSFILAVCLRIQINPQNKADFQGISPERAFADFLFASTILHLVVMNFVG
UniProt Q9H1C7: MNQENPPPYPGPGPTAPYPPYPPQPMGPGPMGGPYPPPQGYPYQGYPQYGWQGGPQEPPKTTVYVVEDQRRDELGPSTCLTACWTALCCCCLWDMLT

Compound in the assay: NCC(=O)Nc1ccc(-n2nc(C(F)(F)F)cc2-c2ccc3c(ccc4ccccc43)c2)cc1
Put plainly: log2 fold change, soluble protein after heating vs DMSO (PISA); higher = thermal stabilisation; K562 cells, 10 uM, 30 min; active = over 0.2 and 3.5 SD of the protein, either way, in both replicates (recomputed). An outline of the steps: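 Thermal stability values are relative to control samples and come from duplicates. They are expressed as log2 fold changes. For measurement, K562 cells (2×10^6 cells/mL) received 10 μM compound for 30 min, and aliquots were heated for 3 min over 48°C-58°C, pooled, and extracted at 4°C in PBS with 0.5% NP-40. Soluble protein, the supernatant after 21,000xg for 90 min, was quantified by TMTpro 16plex LC-MS/MS with equalised channel sums.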
In the case of CWC15 (UniProt Q9P013), the log2 fold change is inactive: -0.033. Then CT45A5 (UniProt P0DMU8), with inactive: 0.11.

CT45A10 (UniProt P0DMU9): the log2 fold change is inactive: -0.15.

For the target DCP1A (UniProt Q9NPI6), the log2 fold change was inactive: -0.088. Then CSRP3 (UniProt P50461), with inactive: 0.012. With DCP2 (UniProt Q8IU60), the log2 fold change is inactive: -0.079. Then CYP46A1 (UniProt Q9Y6A2), with inactive: -0.289. Then CXorf38 (UniProt Q8TB03), with inactive: -0.011; and CT55 (UniProt Q8WUE5), with inactive: -0.126.

Turning to CTH (UniProt P32929), the log2 fold change was inactive: 0.058.

For CUL1 (UniProt Q13616), the log2 fold change was inactive: 0.036.

In the case of CTDNEP1 (UniProt O95476), the log2 fold change was inactive: 0.022.

As to CUTC (UniProt Q9NTM9), the log2 fold change is inactive: 0.031. Consider CSRP1 (UniProt P21291), for which the log2 fold change is inactive: 0. Then CUL2 isoform 2 (UniProt Q13617), with inactive: -0.001. Then DCTN2 isoform 2 (UniProt Q13561), with inactive: -0.011; and DCAF1 (UniProt Q9Y4B6), with inactive: -0.045. Turning to DAXX (UniProt Q9UER7), the log2 fold change was inactive: -0.08. Regarding CXXC1 isoform 2 (UniProt Q9P0U4), the log2 fold change was inactive: -0.026. Then CYC1 (UniProt P08574), with inactive: -0.006; and DCTN4 (UniProt Q9UJW0), with inactive: 0.021.

CSRP2 (UniProt Q16527): the log2 fold change is inactive: 0.11. Then CUL4A (UniProt Q13619), with inactive: -0.068; and DCTN5 (UniProt Q9BTE1), with inactive: -0.004; and CTTN (UniProt Q14247), with inactive: -0.006. Then CSTF2T (UniProt Q9H0L4), with inactive: -0.015; and DCAF15 (UniProt Q66K64), with inactive: -0.1.

Take DCUN1D4 isoform 3 (UniProt Q92564): the log2 fold change is inactive: -0.207. Then DAD1 (UniProt P61803), with inactive: -0.036. Then CYHR1 (UniProt E9PJD7), with inactive: 0.124; and CUSTOS (UniProt Q96C57), with inactive: 0.016; and DCAF4L2 (UniProt Q8NA75), with inactive: -0.041. Then CYSTM1 (UniProt Q9H1C7), with inactive: -0.006; and CTNNA1 isoform 2 (UniProt P35221), with inactive: 0.008; and CTCF (UniProt P49711), with inactive: 0.188. As for DAGLB (UniProt Q8NCG7), the log2 fold change was inactive: -0.04.

These data come from the supplement of paper PMC10849652.
